Patent US8802353B2, “Compound for resist and radiation-sensitive composition specification” (Mitsubishi Gas Chemical Company, Inc., priority 2004, dated 2014)
Some compounds share one wording; it may come from a single statement.

Assay: Amount of residual metal (ICP-MS)
Format: physicochemical
Settings: ICP-MS after wet-ashing

Row | Structure (SMILES) | Residual metal
1 | Cc1cc(C(c2cc(C(c3cc(C)c(O)c(C)c3C)c3cc(C)c(O)c(C)c3C)cc(C(c3cc(C)c(O)c(C)c3C)c3cc(C)c(O)c(C)c3C)c2)c2cc(C)c(O)c(C)c2C)c(C)c(C)c1O [Compound 108] | A (rated A when the amount was less than 1 ppm)
2 | Cc1cc(C(c2ccc(-c3ccc(-c4ccc(C(c5cc(C)c(O)cc5C)c5cc(C)c(O)cc5C)cc4)cc3)cc2)c2cc(C)c(O)cc2C)c(C)cc1O [Compound 107] | A (rated A when the amount was less than 1 ppm)
3 | Cc1cc(C(C)(c2ccc(O)c(C)c2)c2ccc3ccccc3c2)ccc1O [Compound 206, 1-(2-naphthyl)-1,1-bis(3-methyl-4-hydroxyphenyl)ethane, reference compound] | A (rated A when the amount was less than 1 ppm)
4 | Cc1cc(O)c(C(C)C)cc1C(c1ccc2cc(C(c3cc(C(C)C)c(O)cc3C)c3cc(C(C)C)c(O)cc3C)ccc2c1)c1cc(C(C)C)c(O)cc1C [Compound 103] | A (rated A when the amount was less than 1 ppm)
5 | Oc1ccc(C2(c3ccc(O)cc3)c3ccccc3-c3ccccc32)cc1 [Compound 209, bisphenol fluorene, reference compound] | A (rated A when the amount was less than 1 ppm)
6 | Cc1cc(C(c2ccc3ccc(C(c4cc(C)c(O)cc4C)c4cc(C)c(O)cc4C)cc3c2)c2cc(C)c(O)cc2C)c(C)cc1O [Compound 104] | A (rated A when the amount was less than 1 ppm)
7 | Cc1cc(C(c2ccc(-c3cccc(-c4ccc(C(c5cc(C)c(O)cc5C)c5cc(C)c(O)cc5C)cc4)c3)cc2)c2cc(C)c(O)cc2C)c(C)cc1O [Compound 106] | A (rated A when the amount was less than 1 ppm)
8 | Cc1cc(C(c2ccc3ccc(C(c4cc(C)c(O)c(C)c4C)c4cc(C)c(O)c(C)c4C)cc3c2)c2cc(C)c(O)c(C)c2C)c(C)c(C)c1O [Compound 105] | A (rated A when the amount was less than 1 ppm)
9 | Cc1cc(C(c2ccc3cc(C(c4cc(C)c(O)cc4C)c4cc(C)c(O)cc4C)ccc3c2)c2cc(C)c(O)cc2C)c(C)cc1O [Compound 101, tetrakis(2,5-xylenol)-2,6-naphthalenedialdehyde] | A (rated A when the amount was less than 1 ppm)
10 | Cc1cc(C(c2ccc3cc(C(c4cc(C)c(O)c(C)c4C)c4cc(C)c(O)c(C)c4C)ccc3c2)c2cc(C)c(O)c(C)c2C)c(C)c(C)c1O [Compound 102] | A (rated A when the amount was less than 1 ppm)
